Source: PubChem BioAssay AID686938 (Drosophila RNAi Screening Center, 2013)

Screen: 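Knock-downs reducing store-operated calcium influx in Drosophila cells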 (primary screen)
System: Drosophila S2R+ cells
Reagent: long dsRNA against Drosophila genes, about 0.25 µg dsRNA per well, roughly 10,000 cells
Duration: 5 days of knock-down before the calcium assay
Treatment: thapsigargin (SERCA pump blocker) to empty calcium stores; entry signal taken 4 min after adding it
Measured: 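Per-well fluo-4 fluorescence in two replicates, unnormalised, measured in resting cells and 4 min after store depletion by the SERCA blocker thapsigargin; ratio of the two present in few wells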
Direction: calcium entry signal: higher = stronger calcium signal after store depletion; resting calcium signal: higher = higher resting calcium signal
Hit rule: 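Hit if the duplicate-averaged plate z-score for entry over resting signal is under −3; wells with weak total dye signal (Fmax z < −2) or more than 5 off-targets removed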
Meaning of the calls: active = strongly reduced calcium entry; inactive = no strong reduction
The deposit covers about 23,000 reagents; shown is a random part of those with a known target gene and a result. Of all reagents, 75 (0.33%) are marked active. 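Raw plate signals without normalisation; calls rest on plate z-scores that were not deposited; ratio present for only 364 wells.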 A number with no mark means an inactive call. The numbers tell different reagents against one gene apart. Names joined by + are all predicted targets of the reagent. Not given: the dose of the treatment.

no.	target gene	reagent	calcium entry signal, replicate 1 (fluorescence units)	calcium entry signal, replicate 2 (fluorescence units)	resting calcium signal, replicate 1 (fluorescence units)	resting calcium signal, replicate 2 (fluorescence units)
1	CG9458	1	4.27e7	3.96e7	2.10e7	2.25e7
2	CG7567	1	3.46e7	5.10e7	1.67e7	2.05e7
3	Mmp1 (Matrix metalloproteinase 1)	1	4.68e7	3.98e7	2.49e7	2.15e7
4	CG5276	1	3.63e7	3.97e7	1.80e7	2.06e7
5	Nlg3 (Neuroligin 3)	1	3.40e7	4.73e7	1.64e7	2.60e7
6	Nlg3 (Neuroligin 3)	2	6.36e7	4.46e7	2.70e7	2.05e7
7	Nlg3 (Neuroligin 3)	3	4.14e7	3.82e7	2.19e7	1.85e7
8	Nlg3 (Neuroligin 3)	4	3.30e7	2.62e7	1.61e7	1.34e7
9	Tango10 (Transport and Golgi organization 10)	1	3.06e7	3.33e7	1.45e7	1.63e7
10	CG8858	1	2.46e7	3.16e7	1.29e7	1.31e7
11	nrv1 (nervana 1)	1	3.38e7		1.82e7	
12	HisRS (Histidyl-tRNA synthetase)	1	3.10e7	2.72e7	1.70e7	1.42e7
13	CG14104	1	3.11e7	5.19e7	1.50e7	2.10e7
14	St1 (Sulfotransferase 1)	1	3.66e7		2.04e7	
15	Veneno	1	4.68e7	3.00e7	2.18e7	1.53e7
16	CG10274	1	1.19e7	4.59e7	1.13e7	2.91e7
17	Nprl2 (Nitrogen permease regulator-like 2)	1	3.53e7	3.53e7	1.71e7	1.67e7
18	CG42597	1	2.95e7	5.21e7	1.47e7	2.14e7
19	Obp51a (Odorant-binding protein 51a)	1	2.28e7	3.44e7	1.16e7	1.51e7
20	Pi3K92E (Phosphatidylinositol 3-kinase 92E)	1	4.78e7	3.77e7	2.34e7	1.75e7
21	Etf-QO (Electron transfer flavoprotein-ubiquinone oxidoreductase)	1	3.16e7	3.07e7	1.51e7	1.45e7
22	CG13796 + CG31904	1	3.03e7	4.42e7	1.50e7	2.10e7
23	miple2 (midkine and pleiotrophin 2)	1	4.18e7	4.95e7	2.15e7	2.22e7
24	CG8236	1	4.40e7	3.98e7	1.92e7	1.76e7
25	CG8419	1	4.47e7	6.46e7	1.88e7	2.59e7
26	CstF64 (Cleavage stimulation factor 64 kD subunit)	1	3.79e7	3.97e7	4.73e7	1.85e7
27	noc (no ocelli)	1	4.94e7		2.37e7	
28	hubl (hug-bell)	1	3.48e7	3.98e7	1.73e7	1.89e7
29	Gos28 (Golgi SNARE, 28 kDa)	1	4.15e7	3.67e7	4.88e7	1.70e7
30	Gos28 (Golgi SNARE, 28 kDa)	2	2.13e7	2.72e7	1.07e7	1.26e7
31	ATP8 (retired record)	1	3.72e7	4.32e7	2.06e7	2.00e7
32	CG32544	1	2.38e7	4.06e7	2.00e7	1.61e7
33	HemK2 + Snapin	1	3.49e7		1.99e7	
34	HemK2 + Snapin	2	3.75e7	4.82e7	1.78e7	1.89e7
35	tho2	1	2.89e7		1.68e7	
36	CG5910	1	2.30e7	4.00e7	1.11e7	1.58e7
37	TfIIB (Transcription factor IIB)	1	1.93e7	2.64e7	1.13e7	1.35e7
38	CG13895	1	4.28e7	3.66e7	2.17e7	1.69e7
39	CG6961 + CG18259	1	5.22e7	3.88e7	2.35e7	1.61e7
40	CG6961 + CG18259	2	5.15e7	5.59e7	2.29e7	2.33e7
41	Toll-6	1	4.76e7	6.33e7	2.27e7	2.40e7
42	CG12439	1	2.79e7	3.48e7	1.35e7	1.58e7
43	CG2528	1	3.02e7	4.29e7	1.51e7	1.83e7
44	GstO3 (Glutathione S transferase O3)	1	2.70e7	3.28e7	1.37e7	1.40e7
45	CG14995	1	4.87e7	4.01e7	3.49e7	1.61e7
46	CG14995	2	3.81e7	3.55e7	1.85e7	1.44e7
47	CG3356	1	4.17e7		2.18e7	
48	ReepA (Receptor expression enhancing protein A)	1	3.65e7		1.88e7	
49	ReepA (Receptor expression enhancing protein A)	2	3.76e7	3.29e7	2.01e7	1.68e7
50	CG14495	1	4.57e7	4.10e7	2.02e7	1.89e7
51	rad (retired record)	1	3.25e7	3.97e7	1.41e7	1.78e7
52	rad (retired record)	2	4.44e7	4.20e7	2.15e7	1.97e7
53	rad (retired record)	3	3.63e7	4.81e7	2.39e7	3.37e7
54	rad (retired record)	4	1.64e7	4.04e7	8.60e6	1.77e7
55	CG6333	1	4.07e7	4.35e7	1.75e7	1.81e7
56	Lcp65Ac	1	3.16e7	5.09e7	1.47e7	2.08e7
57	CG17344	1	6.87e7	5.61e7	3.35e7	2.30e7
58	Hsp27 (Heat shock protein 27)	1	5.03e7	4.00e7	3.19e7	1.75e7
59	CG31125	1	5.22e7	3.78e7	2.16e7	1.98e7
60	sit (stuck in traffic)	1	3.66e7	5.07e7	1.73e7	1.87e7
61	CR43105 (pseudo)	1	5.11e7	4.27e7	2.20e7	1.81e7
62	WDR79 (WD repeat domain 79)	1	5.45e7		2.49e7	
63	rgr (regular)	1	4.85e7	4.19e7	1.93e7	2.02e7
64	rgr (regular)	2	5.02e7	3.77e7	2.09e7	1.81e7
65	asRNA:CR43468 + Lfg	1	3.25e7	3.75e7	1.76e7	1.73e7
66	Doa (Darkener of apricot)	1	2.44e7	3.10e7	1.24e7	1.55e7
67	Doa (Darkener of apricot)	2	2.80e7	3.22e7	1.28e7	1.78e7
68	Doa (Darkener of apricot)	3	2.68e7	3.03e7	1.25e7	1.63e7
69	Doa (Darkener of apricot)	4	2.40e7	3.38e7	1.24e7	1.74e7
70	Doa (Darkener of apricot)	5	2.36e7	4.05e7	1.10e7	2.07e7
71	Doa (Darkener of apricot)	6	3.44e7	3.56e7	1.52e7	1.60e7
72	Gr98b (Gustatory receptor 98b)	1	4.05e7	3.83e7	2.29e7	1.76e7
73	CG32655	1	3.37e7	2.73e7	1.53e7	1.39e7
74	Bulli	1	3.27e7	5.66e7	1.59e7	2.45e7
75	CG5002	1	3.23e7	2.60e7	1.40e7	1.29e7

Targets listed so far whose target name starts with S or s (2):
target gene	reagent	calcium entry signal, replicate 1 (fluorescence units)	calcium entry signal, replicate 2 (fluorescence units)	resting calcium signal, replicate 1 (fluorescence units)	resting calcium signal, replicate 2 (fluorescence units)
St1 (Sulfotransferase 1)	1	3.66e7		2.04e7	
sit (stuck in traffic)	1	3.66e7	5.07e7	1.73e7	1.87e7
